Primary screen of a compound library

Sequences of proteins named here, by UniProt entry; tags and fusion partners are left off. Residues count along the entry.
UniProt I6X8D2, whole entry: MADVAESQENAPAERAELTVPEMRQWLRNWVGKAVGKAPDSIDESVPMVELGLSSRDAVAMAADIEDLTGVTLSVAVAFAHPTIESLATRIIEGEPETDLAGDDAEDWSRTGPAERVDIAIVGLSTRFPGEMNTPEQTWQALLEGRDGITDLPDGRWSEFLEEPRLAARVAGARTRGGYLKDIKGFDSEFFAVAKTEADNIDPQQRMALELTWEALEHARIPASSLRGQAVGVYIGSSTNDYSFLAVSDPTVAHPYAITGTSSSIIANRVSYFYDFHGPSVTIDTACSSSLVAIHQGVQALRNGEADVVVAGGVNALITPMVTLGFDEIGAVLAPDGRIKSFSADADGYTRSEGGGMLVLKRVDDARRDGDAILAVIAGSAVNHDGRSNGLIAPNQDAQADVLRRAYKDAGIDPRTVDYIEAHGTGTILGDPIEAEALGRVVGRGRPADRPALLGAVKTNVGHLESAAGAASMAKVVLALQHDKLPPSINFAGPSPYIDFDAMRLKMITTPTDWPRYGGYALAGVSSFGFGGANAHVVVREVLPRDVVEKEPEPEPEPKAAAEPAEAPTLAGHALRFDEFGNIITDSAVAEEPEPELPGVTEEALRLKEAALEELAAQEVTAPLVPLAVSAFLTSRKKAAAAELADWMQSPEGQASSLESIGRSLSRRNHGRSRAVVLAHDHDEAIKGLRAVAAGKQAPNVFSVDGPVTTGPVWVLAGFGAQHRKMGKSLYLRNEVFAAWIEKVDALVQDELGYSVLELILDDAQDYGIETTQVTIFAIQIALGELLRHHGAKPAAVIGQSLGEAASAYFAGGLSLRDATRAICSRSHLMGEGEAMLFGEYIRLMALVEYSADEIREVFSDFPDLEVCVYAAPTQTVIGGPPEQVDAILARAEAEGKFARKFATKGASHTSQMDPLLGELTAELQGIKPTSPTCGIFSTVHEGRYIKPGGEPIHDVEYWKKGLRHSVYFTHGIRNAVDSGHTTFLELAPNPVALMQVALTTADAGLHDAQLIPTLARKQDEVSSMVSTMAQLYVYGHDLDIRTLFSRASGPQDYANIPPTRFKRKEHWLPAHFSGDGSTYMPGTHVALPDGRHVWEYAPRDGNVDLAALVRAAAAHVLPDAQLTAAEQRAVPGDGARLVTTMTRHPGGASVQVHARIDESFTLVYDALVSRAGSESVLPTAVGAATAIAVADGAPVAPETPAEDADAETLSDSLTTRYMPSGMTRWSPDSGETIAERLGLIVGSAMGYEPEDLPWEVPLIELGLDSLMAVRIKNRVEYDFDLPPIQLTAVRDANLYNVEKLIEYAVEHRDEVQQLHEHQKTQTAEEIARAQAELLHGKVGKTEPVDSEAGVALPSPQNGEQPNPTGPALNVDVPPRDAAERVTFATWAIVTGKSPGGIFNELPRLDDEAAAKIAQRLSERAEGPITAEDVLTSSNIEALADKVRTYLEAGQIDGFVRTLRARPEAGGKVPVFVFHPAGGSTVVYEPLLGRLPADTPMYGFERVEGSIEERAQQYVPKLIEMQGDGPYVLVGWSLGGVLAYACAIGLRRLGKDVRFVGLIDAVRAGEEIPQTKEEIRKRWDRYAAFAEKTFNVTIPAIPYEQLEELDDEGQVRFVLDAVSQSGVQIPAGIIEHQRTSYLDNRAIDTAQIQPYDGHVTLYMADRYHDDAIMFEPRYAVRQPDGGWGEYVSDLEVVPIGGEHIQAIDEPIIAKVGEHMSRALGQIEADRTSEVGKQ
UniProt Q4DA54, 1-478: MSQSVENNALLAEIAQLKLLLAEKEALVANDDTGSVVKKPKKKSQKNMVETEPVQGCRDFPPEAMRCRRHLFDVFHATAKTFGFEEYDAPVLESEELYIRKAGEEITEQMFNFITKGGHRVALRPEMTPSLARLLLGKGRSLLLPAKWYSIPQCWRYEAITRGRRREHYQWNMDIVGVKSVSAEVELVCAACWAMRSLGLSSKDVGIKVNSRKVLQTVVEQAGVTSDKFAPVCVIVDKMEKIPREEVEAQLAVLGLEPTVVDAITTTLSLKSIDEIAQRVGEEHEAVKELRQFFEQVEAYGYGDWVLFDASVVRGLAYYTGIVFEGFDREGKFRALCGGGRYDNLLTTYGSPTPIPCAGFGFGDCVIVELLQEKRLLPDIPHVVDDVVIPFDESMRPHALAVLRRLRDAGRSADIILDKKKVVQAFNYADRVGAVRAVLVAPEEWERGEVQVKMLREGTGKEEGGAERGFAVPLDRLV
UniProt A4I591, 1-473: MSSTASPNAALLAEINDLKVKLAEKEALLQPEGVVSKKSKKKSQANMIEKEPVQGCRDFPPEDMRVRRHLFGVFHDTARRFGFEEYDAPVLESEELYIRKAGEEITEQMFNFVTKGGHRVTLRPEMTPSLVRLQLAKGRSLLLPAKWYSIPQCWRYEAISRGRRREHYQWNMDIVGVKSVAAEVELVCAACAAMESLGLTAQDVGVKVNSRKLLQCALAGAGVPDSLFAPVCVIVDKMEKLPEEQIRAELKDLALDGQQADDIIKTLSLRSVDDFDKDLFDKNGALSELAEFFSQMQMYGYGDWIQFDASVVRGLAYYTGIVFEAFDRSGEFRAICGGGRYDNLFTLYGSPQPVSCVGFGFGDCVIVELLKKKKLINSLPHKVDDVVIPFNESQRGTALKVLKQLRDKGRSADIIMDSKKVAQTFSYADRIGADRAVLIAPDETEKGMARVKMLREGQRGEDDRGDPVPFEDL

Results are given as percent effect. The controls that fix the scale are not given in the record; negative values are as filed. The compounds are a random part of those screened. A dash means the value is not listed here; it may have been measured.

Pks13 thioesterase: 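Enzyme assay of the thioesterase domain of polyketide synthase 13; the read-out is not stated. Target: Polyketide synthase Pks13, Mycobacterium tuberculosis (UniProt I6X8D2). Concentration: 30 µM. The record gives no direction; the compounds picked for IC50 retests had high values, so higher reads as stronger inhibition. About 67,000 compounds were tested under these conditions; 0.46% (about 300) showed 50% or more at least once.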
TcHisRS: 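Histidine-tRNA ligase, Trypanosoma cruzi CL Brener (UniProt Q4DA54). Enzyme assay of histidyl-tRNA synthetase; the read-out is not stated. Compounds at 30 µM. Higher reads as stronger inhibition (inferred: compounds with an IC50 in retests scored well above the rest). Size under these conditions: about 69,000 compounds, about 31 of them at 50% or above in at least one test.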
LiHisRS: 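Histidine-tRNA ligase, Leishmania infantum (UniProt A4I591). Enzyme assay of histidyl-tRNA synthetase; the read-out is not stated. Compounds at 30 µM. Direction is inferred from retests: higher values go with stronger inhibition. The assay is labelled LdHisRS but filed under L. infantum. Size under these conditions: about 69,000 compounds, about 410 of them at 50% or above in at least one test.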

| structure | Pks13 thioesterase | TcHisRS | LiHisRS |
|---|---|---|---|
| `CC(C)NC(=O)NCc1cc(-c2cccc(Cl)c2)nn1C` | -0.8331% | 7.91% | 5.714% |
| `CN(Cc1ccco1)Cc1cnc2n1CCN(S(C)(=O)=O)CC2` | 26.08% | 0% | 0% |
| `COC(=O)CCC(=O)N(C/C=C/c1ccccc1)CCO` | 6.804% | -5.797% | 2.5% |
| `COC(=O)N1CCc2ccccc2C1C(=O)NCc1ccco1` (stereo unspecified) | -6.277% | 7.216% | 20.87% |
| `Cn1cc(NC(=O)N2CCN(Cc3cscn3)CC2)ccc1=O` | 34.64% | 21.67% | 74.77% |
| `Cc1nc(NC(=O)OC(C)(C)C)sc1C(N)=O` | -5.388% | 10.92% | 0% |
| `Cc1cc(CN2CCC=C(CN(C)C(=O)c3ccco3)C2)no1` | -4.936% | 2.381% | 13.33% |
| `O=C(c1cncc(Br)c1)N1CCC(O)(Cn2ccc3ccncc32)CC1` | -64.45% | 1.622% | 5.556% |
| `Cc1cc(C(=O)N2CCc3c(nc(-c4ccncc4)[nH]c3=O)C2)no1` | 0.6725% | 6.931% | 12.33% |
| `CS(=O)(=O)CC(=O)NCC1OCCc2cn(CC3CC3)nc21` (stereo unspecified) | -34.38% | 2.151% | 7.965% |
| `Cc1nc2c(c(N3CCC(O)(Cn4ccnc4)CC3)n1)CCNCC2` | -23.12% | 9.091% | 11.48% |
| `Cn1nc2c(cc1=O)CN(c1nc3ccccc3s1)CC2` | 1.023% | 9.783% | 90.91% |
| `Cc1nc[nH]c1CN1CCCC12CCN(c1nc3ccccc3s1)CC2` | -37.38% | 11.64% | 34.18% |
| `COc1ccc(C)cc1C(C)NS(=O)(=O)c1ccc2c(c1)CCC(=O)N2` (stereo unspecified) | -0.5022% | 0.6024% | -6.593% |
| `OCC1(NCc2cnc(-c3cccs3)s2)CCOCC1` | -7.736% | 5.263% | 16.07% |
| `CCOc1ncccc1CNC(=O)Nc1cc(C)nn1C` | -16.43% | 2.817% | 7.826% |
| `O=C1COC2(CCN(S(=O)(=O)C3CC3)CC2)CN1c1cccnc1` | 1.067% | 1.22% | 15.38% |
| `CNC(=O)CN1CC[C@H]2CN(C(=O)c3ccc(C)nc3)C[C@H]2C1` | -28.04% | 5.825% | 9.709% |
| `CCc1nnc2n1CC(CNCC1CCCC1)CC2` (stereo unspecified) | - | 8.333% | 15.32% |
| `CC(Cn1cccn1)NC(=O)Nc1nncs1` (stereo unspecified) | -11.81% | 5.714% | 13.46% |
| `N#Cc1cc(NS(=O)(=O)c2cc(C(=O)O)cc(Cl)c2Cl)ccc1F` | 12.74% | -4.298% | -7.018% |
| `O=C(O)CN1CCC(F)(F)C2(CCN(c3ccccc3)C2)C1` (stereo unspecified) | -11.33% | 45.45% | 53.85% |
| `COc1ncccc1CN1C[C@@H]2COC[C@]2(COc2ccccn2)C1` | -1.672% | 3.659% | 7.692% |
| `c1cncc(OCC2CN(Cc3ccco3)Cc3nccn3C2)c1` (stereo unspecified) | -11.9% | -0.8264% | 17.14% |
| `O=C(c1cccc(OC2CCCC2)c1)N1CCCC(n2cncn2)C1` (stereo unspecified) | -0.3008% | 5.263% | 9.524% |
| `CCn1ccnc1CN1CCCN(C(=O)c2ccc(C#N)cc2)CC1` | -23.83% | 5.732% | 15.49% |
| `O=C(C1CCCC1)N1C[C@@H]2CCN(c3cnccn3)C[C@@H]2C1` | -35.33% | 11.06% | 30.28% |
| `Cc1noc(C)c1CN1CC2(CCN(C(=O)c3ccc[nH]3)C2)CC1=O` (stereo unspecified) | -24.99% | -0.4975% | 16.22% |
| `Cc1cccc(CN2CCO[C@H]3[C@@H](OCc4ccncc4)CC[C@@H]32)n1` | -9.89% | -3.175% | 15.45% |
| `CC(=O)NCCNc1nccc(CCC(F)(F)F)n1` | -35.7% | 2.186% | 10.53% |
| `Cc1ccc(Nc2nccc(C3CCN(C(=O)CN)C3)n2)nc1` (stereo unspecified) | 1.307% | 4.478% | 20% |
| `CC(C)c1nn(C)c(N(C)C)c1CNCc1ccc2c(c1)OCCO2` | -13.75% | 3.468% | 13.16% |
| `CSc1ncccc1C(=O)N1CCCC1c1ccc(C(=O)N(C)C)s1` (stereo unspecified) | -24.93% | 5.603% | 1.266% |
| `CN1CCCC(c2nccnc2-c2cccc(Cl)c2)C1` (stereo unspecified) | 17.43% | 8.333% | 12.68% |
| `CNC(=O)COc1ccccc1CNCc1c(C)noc1C` | 8.424% | -2.941% | 3.2% |
| `COc1c(CNC2CCSc3ccc(F)cc32)c(C)nn1C` (stereo unspecified) | -2.808% | 0.3802% | 15.62% |
| `CC1(C)Cc2nc(C(C)(C)C)ncc2C(NC(=O)CN)C1` (stereo unspecified) | -28.58% | 12.44% | 30.12% |
| `O=C(NC1CC1)NC(c1cc(F)ccc1F)C1CC1` (stereo unspecified) | - | 10.39% | 14.29% |
| `O=C(CCOc1ccccc1)NS(=O)(=O)Cc1ccccc1` | -31.03% | 2.041% | 8.571% |
| `CSc1ncccc1C(=O)NCCC(O)c1cc(C)oc1C` (stereo unspecified) | -1.044% | 1.031% | 12.17% |
| `Cn1c(=O)[nH]c2cc(C(=O)OCC(F)F)ccc21` | -0.6598% | 8.861% | 10.42% |
| `COCCO[C@H]1CCN(C(=O)c2ccco2)[C@H]1Cc1cnn(C)c1` | -4.325% | 4.294% | 19.75% |
| `Cc1ccc(Cl)c(CN2CCN(C)C(C(=O)O)C2)c1F` (stereo unspecified) | 0.7116% | 6% | 8.163% |
| `Fc1ccccc1-c1nccnc1C1CCCNC1` (stereo unspecified) | -6.544% | 6.844% | 7.586% |
| `Cn1cc(C(=O)N(Cc2ccco2)Cc2cccs2)ccc1=O` | -5.073% | 13.79% | 20.97% |
| `Cc1ccc(CN2CCC(O)(Cn3nc(-c4cccs4)oc3=O)CC2)o1` | 6.241% | 8.527% | 11.35% |
| `O=C(CS(=O)(=O)Cc1ccccc1)NC1CCCCNC1=O` (stereo unspecified) | -17.15% | 3.429% | 1.923% |
| `COc1ccc(CN2CCCC(n3cccn3)C2)c(Cl)c1OC` (stereo unspecified) | -24.75% | -1.961% | 7.563% |
| `COC(=O)N1CC2(CCNCC2)c2cc(Cl)ccc21` | -11.08% | 4.327% | 4.587% |
| `Fc1ccc(CC2CCN(Cc3cscn3)CC2)cc1` | -16.89% | 3.784% | 19.18% |
| `O=C(c1cccc(F)c1)N1C[C@@H](CN2CCCCC2)[C@@H](CO)C1` | -28.91% | 10.06% | 6.25% |
| `Cc1cc(=O)[nH]c(=O)n1Cc1ccccc1` | -5.934% | -3.03% | -2.222% |
| `CC(C)(CN1CCC2(CCCNC2)C1)N1CCOCC1` (stereo unspecified) | -13.09% | 4.762% | -1.333% |

6 of the entries, repeated:

structure	Pks13 thioesterase	TcHisRS	LiHisRS
Fc1ccc(CC2CCN(Cc3cscn3)CC2)cc1	-16.89%	3.784%	19.18%
Cc1nc(NC(=O)OC(C)(C)C)sc1C(N)=O	-5.388%	10.92%	0%
CN(Cc1ccco1)Cc1cnc2n1CCN(S(C)(=O)=O)CC2	26.08%	0%	0%
CNC(=O)CN1CC[C@H]2CN(C(=O)c3ccc(C)nc3)C[C@H]2C1	-28.04%	5.825%	9.709%
CSc1ncccc1C(=O)N1CCCC1c1ccc(C(=O)N(C)C)s1 (stereo unspecified)	-24.93%	5.603%	1.266%
O=C(C1CCCC1)N1C[C@@H]2CCN(c3cnccn3)C[C@@H]2C1	-35.33%	11.06%	30.28%

Source: ChEMBL document CHEMBL3988442, “University of Dundee, Small-Polar-MMV Screening Library” (2021).